Data: PubChem BioAssay AID2417 (National Center for Advancing Translational Sciences (NCATS), 2010)
Hit rate of the full screen: of about 140,000 compounds, about 4,300 (3.1%) were called active. The inconclusive results got no clear call from the source; some entries with a clear call stand among them for comparison.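 How the source made its calls: active means readout at or below -70, meaning at least 70% loss of cells showing the perinucleolar compartment, a nuclear body marking cancer cells; inconclusive means readout between -30 and a set limit; inactive means the rest.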

Assay: High Content Assay for Compounds that inhibit the Assembly of the Perinucleolar Compartment;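 further: plate controls were DMSO wells for no effect and camptothecin positive control wells for full effect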
Details: PC3M PTB-GFP, PNC prevalence imaging, 16 h; at 10 µM; active compounds read low
How it was run: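 Read-out is percentage of cells bearing a perinucleolar compartment, from automated 20x imaging of fixed, Hoechst-stained PC3M PTB-GFP cells. Cells were seeded 4 h, then exposed 16 h to compound (23 nl of library stock) in duplicate plates.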

Compound | activity change (PNC), negative = inhibition
COc1cccc(Cn2c(Oc3cccc(C)c3)nc3c2c(=O)n(C)c(=O)n3C)c1 | inconclusive: -37.6%
CCN=C(Nc1ccc2c(c1)OCO2)SC1CC(=O)N(c2ccc(OC)cc2)C1=O (stereo not given) | inactive: 8.36%
CCOC(=O)c1c(NC(=O)c2ccccc2C)sc2c1CC(C)(C)OC2 | inconclusive: -36.7%
COc1cccc2[nH]c3c(Cl)ncnc3c12 | inconclusive: -33.3%
COc1cccc(/C=N/NC(=O)c2csc(-n3nc(C)cc3C(F)(F)F)n2)c1 | active: -89.6%
CCOC(=O)c1c(C)[nH]c(C)c1C(=O)CSc1nc2ccccc2c(=O)n1-c1ccc(Cl)cc1 | inconclusive: -51.5%
OC(c1cccc(OCc2ccccc2)c1)c1nnc(-c2ccccc2)o1 (stereo not given) | inconclusive: -59.2%
N#C/C(=C\c1c(N2CCOCC2)nc2ccccn2c1=O)S(=O)(=O)c1ccccc1 | inactive: 0.647%
CNC(=O)CN1C(=O)CSc2ncccc21 | inconclusive: -69.4%
COP(=O)(OC)c1nc(-c2ccccc2)oc1N1CCOCC1 | inactive: -16%
CC1(C)N=C(c2cccc(F)c2)C(=O)N1 | inconclusive: -34.3%
O=C(NN=c1c(=O)c2ccccc2c1=O)c1ccccc1 | inactive: 13.4%
O=C(CSc1nnc(Cn2nnc3ccccc32)o1)N(Cc1ccc(Cl)cc1)c1ccccc1 | inactive: 1.68%
Nc1nonc1-c1nc2ccccc2n1Cc1ccccc1 | inconclusive: -40%
Cc1ccc(C(=O)NCC(=O)OCC(=O)Nc2ncc(C(F)(F)F)cc2Cl)cc1 | inconclusive: -44.3%
S=C(NCc1cccs1)Nc1cccc(Cl)c1 | inactive: 2.27%
Cc1cccc(N2C(=O)CC(Sc3nc(-c4ccccc4)c4cc(Cl)ccc4n3)C2=O)c1 (stereo not given) | inactive: -17.3%
CC(=O)Nc1nonc1-n1nnc(C(=O)NCc2ccccc2)c1C | inconclusive: -55.1%
CCOC(=O)C1C(=O)OC2(CCCCC2)C1C(=O)OCC (stereo not given) | inconclusive: -53.4%
COc1ccc(CCNC(=O)CCn2c(SCC#N)nc3ccccc3c2=O)cc1OC | inactive: -7.9%
O=C(OCn1ncc(Br)c(Br)c1=O)c1ccc(F)cc1 | inactive: -10.3%
C=CCc1cccc(CNc2nc3ccccc3n2C(C)C)c1O | inactive: 4.19%
Cc1c(C)n(CC(O)CN2C(=O)c3ccccc3S2(=O)=O)c2ccccc12 (stereo not given) | inconclusive: -36.5%
COc1ccc(NC(=O)C2OCCc3ccccc32)c(OC)c1 (stereo not given) | inconclusive: -45.5%
COc1ccc(C(=O)N/C(=C\c2ccco2)C(=O)NCCCn2ccnc2)cc1 | inconclusive: -61%

As a short view, some entries already given.
Compound | activity change (PNC), negative = inhibition
CCN=C(Nc1ccc2c(c1)OCO2)SC1CC(=O)N(c2ccc(OC)cc2)C1=O (stereo not given) | inactive: 8.36%
CCOC(=O)c1c(NC(=O)c2ccccc2C)sc2c1CC(C)(C)OC2 | inconclusive: -36.7%
